At least one read-out could not be matched to a standard name with certainty.
Assays:
[1] = tested on: Chaetomium globosum unspecific peroxygenase CglUPO, wild-type, SEQ ID NO 1; test: Enzyme kinetics of isophorone hydroxylation (GC-MS product quantification); type: biochemical; details: 6.25-6400 µM substrate, 100 nM enzyme, 0.5 mM H2O2, 3 min, mean of three replicates with standard errors
Description: AaeUPO (isoform II, 46 kDa), the first UPO described in 2004 (R. Ullrich and M. Hofrichter, FEBS Lett. 2005, 579, 6247-6250), is a wild-type (i.e. non-recombinant) peroxygenase purified from cultures of A. aegerita TM-A1, grown in soybean-peptone medium. MroUPO is another wild-type peroxygenase (32 kDa) purified from cultures of M. rotula DSM-25031 (German Collection of Microorganisms and Cell Cultures, Braunschweig). CglUPO (36 kDa) is a third wild-type peroxygenase recently purified from cultures of C. globosum DSM-62110.
Reactions were carried out with 6.25-6400 µM substrate and 100 nM enzyme. They were initiated adding 0.5 mM H2O2 and stopped by vigorous shaking in 5 mM sodium azide. Reaction times in which the reaction velocity was linear were previously selected: 5 min for AaeUPO, 3 min for CglUPO and 1 min for rHinUPO. All reactions were performed in triplicates. Product quantification was carried out by GC-MS using external standard curves, and kinetic parameters - turnover number (kcat), Michaelis constant (Km) and catalytic efficiency (kcat/Km) - were obtained by fitting the data to the Michaelis-Menten equation, or the corresponding variation of this equation when substrate inhibition is occurring, using SigmaPlot (Systat Softwarwe Inc., San Jose, CA, USA). […]

[2] = tested on: Humicola insolens unspecific peroxygenase rHinUPO, recombinant protein, SEQ ID NO 2; test: as above; type: biochemical; details: 6.25-6400 µM substrate, 100 nM enzyme, 0.5 mM H2O2, 1 min, mean of three replicates with standard errors
Description: The rCciUPO (44 kDa) and rHinUPO recombinant enzymes were provided by Novozymes A/S. rCciUPO corresponds to the protein model 7249 from the sequenced C. cinerea genome available at the JGI (http://genome.jgi.doe.gov/Copci1) used in several studies (E. D. Babot, J. C. del Río, L. Kalum, A. T. Martínez and A. Gutiérrez, Biotechnol. Bioeng. 2013, 110, 2332; E. D. Babot, J. C. del Río, M. Cañellas, F. Sancho, F. Lucas, V. Guallar, L. Kalum, H. Lund, G. Gröbe, K. Scheibner, R. Ullrich, M. Hofrichter, A. T. Martínez and A. Gutiérrez, Appl. Environ. Microbiol. 2015, 81, 4130-4142; E. D. Babot, J. C. del Río, L. Kalum, A. T. Martínez and A. Gutiérrez, ChemCatChem 2015, 7, 283-290). The rHinUPO sequence has been more recently reported (Patent US 9908860 B2) and used for oxyfunctionalizations that are not catalyzed by other UPOs. Both UPOs were expressed in Aspergillus oryzae (patent WO/2008/119780).
Reactions were carried out with 6.25-6400 µM substrate and 100 nM enzyme. […] Product quantification was carried out by GC-MS using external standard curves, and kinetic parameters - turnover number (kcat), Michaelis constant (Km) and catalytic efficiency (kcat/Km) - were obtained by fitting the data to the Michaelis-Menten equation, or the corresponding variation of this equation when substrate inhibition is occurring, using SigmaPlot (Systat Softwarwe Inc., San Jose, CA, USA). […]

CC1=CC(=O)CC(C)(C)C1 [isophorone, 3,5,5-Trimethyl-2-cyclohexen-1-one]
kcat/ Km [1]: 1.6±0.1 x 10^4 M^-1·s^-1
kcat/ Km [2]: 8.1±1.2 x 10^4 M^-1·s^-1
